PubChem BioAssay AID504784 | Drosophila RNAi Screening Center | 2011
The screen tested about 17,000 reagents; this is a random part of those that have a named target and a result. 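Each column is one replicate's B-score; the combined score over replicates was not deposited, so single values may mislead.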 A plus sign joins genes that one reagent is predicted to hit. Further read-outs or replicates are left out here.

Aim: 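Search for regulators of lipid droplet storage in oleate-fed fly cells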 (primary screen)
System: Drosophila Kc167 embryonic cells
Reagents: long dsRNA against Drosophila genes, about 250 ng dsRNA per well
Time to read-out: 4 days
Treatment: cells fed 400 µM oleic acid bound to BSA
Detection: 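Cells imaged and segmented; ratio of lipid droplet area to nuclear area, log-transformed, then normalised as a B-score over the screen; higher means more stored lipid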
Direction: droplet/nuclear area B-score: higher = more stored lipid (overstorage)

| target gene | amplicon | droplet/nuclear area B-score, replicate 1 |
| --- | --- | --- |
| CG18480 | DRSC01957 | 0.498 |
| CG7094 | DRSC03005 | 0.21 |
| CG18542 + CG32939 | DRSC15342 | -0.0532 |
| mthl6 | DRSC10234 | -0.332 |
| CG31370 | DRSC21453 | -1.75 |
| Drep4 | DRSC03408 | 0.422 |
| CG31418 | DRSC21780 | 0.289 |
| maf-S | DRSC07348 | -0.59 |
| CG8191 + CG12379 | DRSC19451 | -0.11 |
| CG13685 | DRSC10043 | 0.637 |
| CG3609 | DRSC00620 | 1.38 |
| PEK | DRSC12361 | 1.23 |
| Indy-2 + CG33934 | DRSC15685 | -0.0176 |
| Indy-2 + CG33934 | DRSC15686 | -0.00602 |
| CG17159 + CG17162 | DRSC20899 | -0.306 |
| CG17159 + CG17162 | DRSC20900 | -0.485 |
| CG13869 + CG11099 | DRSC06428 | -0.814 |
| Cyt-c-d | DRSC03309 | -0.23 |
| Dys + snoRNA:Me18S-A1374 | DRSC16232 | 1.44 |
| CG18735 | DRSC04312 | -0.555 |
| apt | DRSC04671 | 1.46 |
| apt | DRSC23278 | -0.428 |
| CCDC151 | DRSC10131 | -0.719 |
| pnr | DRSC17027 | -0.182 |
| Cpr49Ag | DRSC07203 | 0.0679 |
| HP1e | DRSC16379 | 0.135 |
| ImpL1 | DRSC11197 | -1.17 |
| CG13643 | DRSC14641 | 2.44 |
| CG13643 | DRSC14642 | -0.796 |
| Nep1 | DRSC18388 | -0.265 |
| Nep1 | DRSC18389 | 0.541 |
| scra | DRSC07679 | 0.34 |
| Fili | DRSC04132 | 0.768 |
| Fili | DRSC04445 | -1.19 |
| CG10749 | DRSC09798 | -0.403 |
| VhaAC45 | DRSC07058 | -0.62 |
| CanB | DRSC18449 | 2.62 |
| Nipped-A | DRSC04882 | 0.386 |
| Nipped-A | DRSC04883 | 2.01 |
| Nipped-A | DRSC04884 | -3.67 |
| Nipped-A | DRSC07738 | 0.796 |
| Nipped-A | DRSC22386 | 2.85 |
| CG12609 | DRSC19473 | 0.379 |
| Phyhd1 | DRSC14911 | -0.683 |
| CG7164 | DRSC03018 | -1.36 |
| CG14985 | DRSC08443 | 0.661 |
| Hk | DRSC17638 | -1.02 |
| Hk | DRSC18138 | 1.03 |
| Hk | DRSC18674 | 1.8 |
| CG17163 | DRSC20901 | -0.292 |
| HIPP1 | DRSC11748 | 2.48 |
| CG30172 | DRSC21519 | -0.185 |
| CG7564 | DRSC10880 | -2.94 |
| sncRNA:430e + His2A:CG33859 + His2A:CG33817 + 37 more | DRSC21264 | -1.13 |
| Svip | DRSC08982 | -0.628 |
| Pex11c | DRSC14677 | 0.686 |
| CG7763 | DRSC07043 | -0.692 |
| VGlut | DRSC00733 | -0.547 |
| VGlut | DRSC21821 | 0.492 |
| Mtch | DRSC08679 | 0.204 |
| CG9717 | DRSC16543 | 0.152 |
| CG6277 | DRSC16008 | 0.256 |
| amx | DRSC18736 | 0.699 |
| CG8303 | DRSC07140 | -0.415 |
| CG42514 | DRSC10428 | -3.23 |
| Lcp3 | DRSC07457 | 0.181 |
| CG6462 | DRSC10641 | 1.55 |
| qkr58E-3 | DRSC04711 | -0.324 |
| HP1c | DRSC16166 | 0.233 |
| dbf | DRSC02570 | 0.921 |
| CG3301 | DRSC15471 | 0.0506 |
| mRpL36 | DRSC10337 | 1.12 |
| Alg3 | DRSC04700 | 0.215 |
| Spf45 | DRSC03826 | -0.0887 |
| hfw | DRSC18506 | -1.13 |
| Ccz1 | DRSC08439 | 0.206 |
| Pld | DRSC04854 | 0.134 |
| bcd + CR14578 | DRSC20984 | 0.493 |
| APC10 | DRSC06071 | 1.18 |
| Cog8 | DRSC02961 | 0.0391 |
| COX4L | DRSC04841 | 1.04 |
| CG8661 | DRSC20115 | -0.0618 |
| tilB | DRSC20634 | 0.998 |
| upd2 | DRSC19969 | -1.81 |
| Cyp310a1 | DRSC03301 | 0.659 |
| CG6163 | DRSC10595 | 0.63 |
| CG15368 | DRSC18040 | 0.408 |
| CG15368 | DRSC23291 | 0.304 |
| Dsk | DRSC12347 | -0.912 |
| Jon65Aii | DRSC10665 | 0.462 |
| CG9458 | DRSC16495 | -0.0135 |
| eIF3h | DRSC01995 | 0.879 |
| CG17110 | DRSC15173 | -0.0995 |
| CG8547 | DRSC07211 | -0.27 |
| CG11898 | DRSC14432 | -3.85 |
| CG14763 | DRSC06497 | -0.365 |
| ItgaPS5 | DRSC04501 | 0.0203 |
| CG9084 | DRSC07335 | -0.0518 |
| RalGPS | DRSC06941 | -2.03 |
| CG11523 | DRSC11669 | 0.187 |
| CG1441 | DRSC06448 | -1.26 |
| rtet | DRSC14160 | 1.53 |
| Usp10 | DRSC08282 | -1.13 |
| Usp10 | DRSC08373 | 0.678 |
| CG8004 | DRSC10947 | -0.429 |

Ordered by “droplet/nuclear area B-score, replicate 1” (descending): 13 of the entries above
| target gene | amplicon | droplet/nuclear area B-score, replicate 1 |
| --- | --- | --- |
| APC10 | DRSC06071 | 1.18 |
| COX4L | DRSC04841 | 1.04 |
| tilB | DRSC20634 | 0.998 |
| Cyp310a1 | DRSC03301 | 0.659 |
| bcd + CR14578 | DRSC20984 | 0.493 |
| Alg3 | DRSC04700 | 0.215 |
| Ccz1 | DRSC08439 | 0.206 |
| Pld | DRSC04854 | 0.134 |
| Cog8 | DRSC02961 | 0.0391 |
| CG8661 | DRSC20115 | -0.0618 |
| Spf45 | DRSC03826 | -0.0887 |
| hfw | DRSC18506 | -1.13 |
| upd2 | DRSC19969 | -1.81 |
